According to PMC6966473:
Results are given in words; binding and its absence hold for the method and conditions named. In cells and extracts the contact can be indirect. Some results given as binding are weak or reduced against the parent protein; the word gives no strength. For some assays here: Where a sequence is shown, tags or fusion partners need not be part of it.

T1: RASSF10, overexpressed (tag not stated) (human) (UniProt A6NK89)
T1 sequence: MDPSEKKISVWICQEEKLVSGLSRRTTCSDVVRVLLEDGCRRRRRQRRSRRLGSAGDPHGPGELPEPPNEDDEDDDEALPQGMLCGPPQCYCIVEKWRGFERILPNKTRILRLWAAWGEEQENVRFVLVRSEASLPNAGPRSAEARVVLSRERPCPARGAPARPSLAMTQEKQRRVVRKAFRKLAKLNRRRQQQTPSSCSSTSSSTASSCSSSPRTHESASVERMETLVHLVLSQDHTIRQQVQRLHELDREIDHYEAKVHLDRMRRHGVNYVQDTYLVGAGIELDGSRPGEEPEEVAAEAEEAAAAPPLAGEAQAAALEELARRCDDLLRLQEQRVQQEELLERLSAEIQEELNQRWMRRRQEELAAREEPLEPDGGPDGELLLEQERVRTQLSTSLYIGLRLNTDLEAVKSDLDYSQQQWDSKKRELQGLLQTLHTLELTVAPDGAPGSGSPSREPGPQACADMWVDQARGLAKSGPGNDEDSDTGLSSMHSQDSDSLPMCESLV

T2: RASSF10D1-133 (human) (UniProt A6NK89)
T2 sequence: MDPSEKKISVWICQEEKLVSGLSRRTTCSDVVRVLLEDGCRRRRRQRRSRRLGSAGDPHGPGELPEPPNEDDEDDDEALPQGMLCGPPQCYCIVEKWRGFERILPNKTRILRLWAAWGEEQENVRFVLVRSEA

T3: RASSF10D237-362 (human) (UniProt A6NK89)
T3 sequence: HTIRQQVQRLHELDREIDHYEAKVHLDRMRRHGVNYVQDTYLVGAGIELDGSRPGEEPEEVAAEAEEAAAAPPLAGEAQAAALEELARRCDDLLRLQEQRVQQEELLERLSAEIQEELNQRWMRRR

T4: RASSF10-EYFP (human) (UniProt A6NK89)
T4 sequence: T1 sequence

B1: endogenous ASPP1 (HEK) (protein, UniProt Q96KQ4 1-1090)
chain: MMPMILTVFLSNNEQILTEVPITPETTCRDVVEFCKEPGEGSCHLAEVWRGNERPIPFDHMMYEHLQKWGPRREEVKFFLRHEDSPTENSEQGGRQTQEQRTQRNVINVPGEKRTENGVGNPRVELTLSELQDMAARQQQQIENQQQMLVAKEQRLHFLKQQERRQQQSISENEKLQKLKERVEAQENKLKKIRAMRGQVDYSKIMNGNLSAEIERFSAMFQEKKQEVQTAILRVDQLSQQLEDLKKGKLNGFQSYNGKLTGPAAVELKRLYQELQIRNQLNQEQNSKLQQQKELLNKRNMEVAMMDKRISELRERLYGKKIQLNRVNGTSSPQSPLSTSGRVAAVGPYIQVPSAGSFPVLGDPIKPQSLSIASNAAHGRSKSANDGNWPTLKQNSSSSVKPVQVAGADWKDPSVEGSVKQGTVSSQPVPFSALGPTEKPGIEIGKVPPPIPGVGKQLPPSYGTYPSPTPLGPGSTSSLERRKEGSLPRPSAGLPSRQRPTLLPATGSTPQPGSSQQIQQRISVPPSPTYPPAGPPAFPAGDSKPELPLTVAIRPFLADKGSRPQSPRKGPQTVNSSSIYSMYLQQATPPKNYQPAAHSALNKSVKAVYGKPVLPSGSTSPSPLPFLHGSLSTGTPQPQPPSESTEKEPEQDGPAAPADGSTVESLPRPLSPTKLTPIVHSPLRYQSDADLEALRRKLANAPRPLKKRSSITEPEGPGGPNIQKLLYQRFNTLAGGMEGTPFYQPSPSQDFMGTLADVDNGNTNANGNLEELPPAQPTAPLPAEPAPSSDANDNELPSPEPEELICPQTTHQTAEPAEDNNNNVATVPTTEQIPSPVAEAPSPGEEQVPPAPLPPASHPPATSTNKRTNLKKPNSERTGHGLRVRFNPLALLLDASLEGEFDLVQRIIYEVEDPSKPNDEGITPLHNAVCAGHHHIVKFLLDFGVNVNAADSDGWTPLHCAASCNSVHLCKQLVESGAAIFASTISDIETAADKCEEMEEGYIQCSQFLYGVQEKLGVMNKGVAYALWDYEAQNSDELSFHEGDALTILRRKDESETEWWWARLGDREGYVPKNLLGLYPRIKPRQRTLA
B2: ASPP2 (experiments of Figure S3) (protein, UniProt Q13625 1-1128)
chain: MMPMFLTVYLSNNEQHFTEVPVTPETICRDVVDLCKEPGESDCHLAEVWCGSERPVADNERMFDVLQRFGSQRNEVRFFLRHERPPGRDIVSGPRSQDPSLKRNGVKVPGEYRRKENGVNSPRMDLTLAELQEMASRQQQQIEAQQQLLATKEQRLKFLKQQDQRQQQQVAEQEKLKRLKEIAENQEAKLKKVRALKGHVEQKRLSNGKLVEEIEQMNNLFQQKQRELVLAVSKVEELTRQLEMLKNGRIDSHHDNQSAVAELDRLYKELQLRNKLNQEQNAKLQQQRECLNKRNSEVAVMDKRVNELRDRLWKKKAALQQKENLPVSSDGNLPQQAASAPSRVAAVGPYIQSSTMPRMPSRPELLVKPALPDGSLVIQASEGPMKIQTLPNMRSGAASQTKGSKIHPVGPDWSPSNADLFPSQGSASVPQSTGNALDQVDDGEVPLREKEKKVRPFSMFDAVDQSNAPPSFGTLRKNQSSEDILRDAQVANKNVAKVPPPVPTKPKQINLPYFGQTNQPPSDIKPDGSSQQLSTVVPSMGTKPKPAGQQPRVLLSPSIPSVGQDQTLSPGSKQESPPAAAVRPFTPQPSKDTLLPPFRKPQTVAASSIYSMYTQQQAPGKNFQQAVQSALTKTHTRGPHFSSVYGKPVIAAAQNQQQHPENIYSNSQGKPGSPEPETEPVSSVQENHENERIPRPLSPTKLLPFLSNPYRNQSDADLEALRKKLSNAPRPLKKRSSITEPEGPNGPNIQKLLYQRTTIAAMETISVPSYPSKSASVTASSESPVEIQNPYLHVEPEKEVVSLVPESLSPEDVGNASTENSDMPAPSPGLDYEPEGVPDNSPNLQNNPEEPNPEAPHVLDVYLEEYPPYPPPPYPSGEPEGPGEDSVSMRPPEITGQVSLPPGKRTNLRKTGSERIAHGMRVKFNPLALLLDSSLEGEFDLVQRIIYEVDDPSLPNDEGITALHNAVCAGHTEIVKFLVQFGVNVNAADSDGWTPLHCAASCNNVQVCKFLVESGAAVFAMTYSDMQTAADKCEEMEEGYTQCSQFLYGVQEKMGIMNKGVIYALWDYEPQNDDELPMKEGDCMTIIHREDEDEIEWWWARLNDKEGYVPRNLLGLYPRIKPRQRSLA

Legend:
[1] = molecular target: T1, RASSF10, overexpressed (tag not stated) (human); test: pull-down; RASSF10 overexpressed in HEK cells and pulled down (GFP-Trap or Glutathione-Sepharose; which in which panel not told); overexpressed (Figure 4b) or endogenous (Figure 4c) ASPP1/2 detected by Western blot
[2] = molecular target: T2, RASSF10D1-133 (human); test: co-IP; co-precipitation of ASPP1/2 with RASSF10 or RASSF10 domain mutants (Figure S3a); tags and cells not given
[3] = molecular target: T1, RASSF10, overexpressed (tag not stated) (human); test: co-IP; co-precipitation of ASPP2 with RASSF10 or its domain mutants, with RASSF10 mutants or wt-RASSF10 as overexpressed competitors (Figure S3b)
[4] = molecular target: T3, RASSF10D237-362 (human); test: as above
[5] = molecular target: T4, RASSF10-EYFP (human); test: co-IP; wt-RASSF10 held on GFP-Trap, ASPP1/2 co-precipitated, RASSF10D237-362 as competitor (Figure S3c)

Row | Binder | binding [1] | binding [2] | binding [3] | binding [4] | binding [5]
1 | B1 | binds | – | – | – | –
2 | B2 | – | binds weakly | binds | binds | binds
